Measurements reported in patent publication US20240366564A1, “Use of Chlorophyll Derivatives for the Treatment of SARS-CoV-2 Infection” (priority 2021, published 2024).
For at least one compound, name, drawing or mass did not settle the structure.

Target: T1, binding of SARS-CoV-2 Spike protein (S1 subunit) to ACE2 (UniProt P0DTC2+Q9BYF1)
T1 construct: a fusion protein of the SARS-CoV-2 spike protein S1 subunit and the horseradish peroxidase (HRP) enzyme

Row | SMILES | Active (Y or N)
1 | C=CC1=C(C)c2cc3[nH]c(cc4nc(cc5[nH]c(cc1n2)c(C)c5CCC(=O)O)C(CCC(=O)O)=C4C)c(C)c3C=C [Protoporphyrin IX] | Y
2 | CC1=C(CCC(=O)O)c2cc3[nH]c(cc4nc(cc5[nH]c(cc1n2)c(C)c5C(C)O)C(C)=C4C(C)O)c(C)c3CCC(=O)O (stereo not drawn) [Hematoporphyrin] | N
3 | Oc1cccc(-c2c3nc(c(-c4cccc(O)c4)c4ccc([nH]4)c(-c4cccc(O)c4)c4nc(c(-c5cccc(O)c5)c5ccc2[nH]5)CC4)C=C3)c1 [Temoporfin] | N
